{"source": "patent US7153858B2", "about": "“Arylpiperazinyl compounds” (Epix Delaware, Inc., priority 2003, dated 2006)", "system": "C57B16/J mice", "test": "Elevated Plus Maze (EPM)", "assay_type": "in vivo", "details": "reference CDP 10 mg/kg IP, vs vehicle", "source_text": "Young adult male C57B16/J mice from Jackson Laboratory, Bar Harbor, Me. were used in the Elevated Plus Maze; 129 svev mice from Taconic, Germantown, N.Y. were used in the Stress-induced Hyperthermia, Open Field, and the Tail Suspension tests, and DBA/2J mice from Jackson Laboratory, Bar Harbor, Me. were used in the Forced Swim test. All mice were received at the age of 6 weeks and were assigned unique identification numbers. Animals were housed 4 per cage in polycarbonate cages with filter tops, cagemate identification maintained by tail marks. Animals were acclimated for 7 days and given food and water ad libitum. Mice were examined prior to initiation of the study at 8 weeks of age to assure adequate health and suitability. During the course of the study, 12-hour light/12-hour dark cycles were maintained with the light on at 7:00 a.m. The room temperature was maintained between 20 and 23° C. with a relative humidity maintained between 30% and 70%. Chow and water were provided ad libitum.\nIn each test, animals were randomly assigned across treatment groups and balanced by cage number. Ten animals were used in each treatment group. Mice for the Open Field and Stress-induced hyperthermia studies were handled once daily for 2 consecutive days prior to the testing. Mice assigned to the Elevated plus maze experiment were not handled to increase the stress level at the time of the testing.\nAll compounds were dissolved in sterile injectable water, which served as the vehicle control. All solutions were prepared on the day of the experiments. […] In all tests except for the tail suspension (TS) test, drugs were administered acutely; in the TS test, Compound A was administered once daily for 3 days (test day inclusive) prior to testing. […]\nThe elevated plus maze is a test commonly used to assess anxiety in rodents. […] The time in the open/closed arms and the number of entries in the open/closed arms were recorded via video camera and used as a measure of anxiety. […]\nAll data were analyzed by comparing the groups treated with the test substance to the vehicle control or reference treated groups. […]", "note": "Entries after “also recorded” stand apart in the source; their conditions may differ. At least one compound was matched to its structure with a doubt left."}
{"molecule": "CNC1=Nc2ccc(Cl)cc2C(c2ccccc2)=[N+]([O-])C1", "note": "[CDP, Chlordiazepoxide, reference compound]", "values": [{"measurement": "Open Arm Time", "value": "nearly significant increase; also recorded: increase (CDP)"}, {"measurement": "Proportion Open Arm Entries", "value": "significantly increased; also recorded: increase (CDP)"}, {"measurement": "Total Entries", "value": "slight increase in motor activity; also recorded: increase (CDP)"}]}
